Assay results published in the supplement of paper PMC7824004.
The list shows a part of the results. The data scatter; read single values as rough.

The compounds below were run on Candida albicans SN425 (assay: biofilm OD600 B-score; higher = more biofilm (less inhibition)). Conditions: 10 µM; assay detail: High-throughput adherence inhibition optical density biofilm assay with C. albicans SN425 in RPMI-1640/MOPS pH 7.0, 384-well plates. ….
Method: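 High-throughput adherence inhibition optical density biofilm assay with C. albicans SN425 in RPMI-1640/MOPS pH 7.0, 384-well plates. Compound (10 µM) was present only during the 90 min adherence step, then washed out, and the biofilm grew 24 h without compound. Biofilm was read as OD600 after removing the media. Scores are the difference from the mean in standard deviations and the plate B-score.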

Structure (SMILES) | biofilm OD600 B-score
OCCN(Cc1ccccc1)Cc1ccc(Cl)cc1 | 0.19
O=S(=O)(Cc1ccccc1)N1CCN(C/C=C/c2ccccc2)CC1 | 1.03
Cc1cc(N)n2nc(-c3ccccc3)cc2n1 | 2.1
CCCn1[nH]cc(SC)c(=O)c1=O | 0.052
CC(=O)Nc1cccc(NC(=O)Cc2ccccc2)c1 | -0.107
Cc1ccc(NC(=O)Cn2c(C)nc3ccccc32)cc1 | -0.329
Clc1ccc(OCCN2CCOCC2)cc1 | -0.921
COc1ccccc1C(O)c1nccn1C (centres undefined) | 0.154
COc1cc(OC)cc(C(=O)Nc2nc(C)c(C)s2)c1 | 2.65
Cn1c(SCC(=O)c2cccs2)nnc1-c1ccccc1 | -1
C=CCn1c(SCCC)nc(O)cc1=O | -0.308
CC(O)CNc1ncnc2sc3c(c12)CCC3 (centres undefined) | 2.75
CC(=O)c1ccc(Oc2ccc(N)cc2)cc1 | 1.07
Fc1ccccc1COc1ccc(-c2nn[nH]n2)cc1 | 0.977
CC(C)(Oc1ccc(Cl)cc1)C(=O)Nc1ncn[nH]1 | -0.8
Cc1cccc(NC(=O)c2ccc(Br)o2)n1 | -1.72
C=CCOc1ccccc1CN1CCCN(C)CC1 | 1.4
CCc1cccc(OCCCN2CCN(C)CC2)c1 | 0.0663
O=C(c1ccc(Cl)cc1)N1CCN(C(=O)c2ccco2)CC1 | -2.73
NC(=O)c1ccccc1NC(=O)CCSc1ccccc1 | -0.521
CCOC(=O)N1CCN(c2ccccc2F)CC1 | -0.536
CC(=O)Nc1ccccc1-c1ccccc1NC(C)=O | -1.46
CC(=O)Nc1ccc(NS(C)(=O)=O)cc1 | -2.2
O=S(=O)(c1cc(Cl)ccc1Br)N1CCOCC1 | 0.712

Quoted at random: two entries already listed.
Structure (SMILES) | biofilm OD600 B-score
CCc1cccc(OCCCN2CCN(C)CC2)c1 | 0.0663
CC(=O)Nc1cccc(NC(=O)Cc2ccccc2)c1 | -0.107
